Assay results taken from paper PMC12040169 (PLOS Biology, 2025).
The other results are listed elsewhere or left out.

tested on: T1, CTL2-GFP (C. trachomatis L2/434/Bu, GFP-expressing); set-up: species or system HeLa; Intracellular C. trachomatis growth in HeLa cells, bulk GFP fluorescence relative to DMSO; conditions: bulk GFP, single well; 28.5 h, 10 µM; inhibitor
T1 construct: L2/434/Bu, GFP-expressing

Compared with CCN1CCN(c2ccc(C(=O)OC)cc2NC(=O)c2ccccc2C)CC1 [CBK269902], CCN1CCN(c2ccc(NC(=O)c3ccc(OCc4ccccc4)cc3)cc2Cl)CC1 [CBK266683] is higher in “% of control remaining” value: 125.864% for the first, 182.398% for the second.

Compared with CC1=C[C@@H](CNS(C)(=O)=O)[C@H](C(C)C)C[C@H]1Cc1nnc(-c2ccccc2F)o1 [CBK289226], C=C(C)Cn1c(SCC(C)C)nnc1-c1ccccc1C(=O)NC(C)C [CBK200096] is higher in “% of control remaining” value: 102.194% for the first, 123.52% for the second.

First: COc1ccccc1CNC(=O)c1ccc(Cl)c(S(=O)(=O)N2CCOCC2)c1 [CBK267060]
Second: COc1ccccc1NC(=O)NC(=O)C1CCN(C)CC1 [CBK034830]
The “% of control remaining” value of the first is higher: 169.837% for the first, 145.438% for the second.

First: CCCn1c(=N)n(CCOc2cccc(C)c2)c2ccccc21 [CBK264746B]
Second: Cc1ccc(Cl)cc1NC(=O)CCn1cnc2ccccc2c1=O [CBK270103]
The “% of control remaining” value of the first is lower: 106.847% for the first, 125.105% for the second.

First: O=C(c1ccc2cc[nH]c2c1)N1CCN(CC2CCOC2)CC1 (stereo not drawn) [CBK305541]
Second: Cn1c(CN2CCN(C(=O)NC3CCCCC3)CC2)nc2cc([N+](=O)[O-])ccc21 [CBK268266]
The “% of control remaining” value of the first is higher: 137.674% for the first, 88.622% for the second.

Compared with CN(C)c1nc2ccc(OCCN3CCOCC3)cc2s1 [CBK261135], COc1ccc2nc(C)cc(N3CCOCC3)c2c1 [CBK066896] is higher in “% of control remaining” value: 116.37% for the first, 117.037% for the second.

First: Cn1ncc2c1NC(=O)CC2c1c[nH]nc1-c1ccccc1 (stereo not drawn) [CBK287941]
Second: O=C(O)CSc1nc(O)c2c(-c3ccccc3)csc2n1 [CBK268067]
The “% of control remaining” value of the first is higher: 125.346% for the first, 107.953% for the second.

First: Fc1cccc(F)c1-c1cc(Nc2ccc(N3CCOCC3)cc2)ncn1 [CBK037673]
Second: COc1ccc(Nc2cc(-c3ccco3)ncn2)cc1OC [CBK090822]
The “% of control remaining” value of the first is lower: 82.6274% for the first, 126.885% for the second.

Going from O=C(CNC(=O)OCc1ccccc1)NCC(CCCN1CCN(c2ccccc2)CC1)(c1ccccc1)c1ccccc1 [CBK002293] to O=C(O)Cn1cc(C(C(=O)O)N2CCN(c3ccccc3)CC2)c2ccccc21 (stereo not drawn) [CBK286625], the “% of control remaining” value rises from 97.5352% to 151.621%.

Compared with Cc1c(Cl)cccc1NC(=S)N1CCC(C(N)=O)(N2CCCCC2)CC1 [CBK264900], CN(CCN1CCCCC1)C(=O)C1Cc2cc(Cl)ccc2O1 (stereo not drawn) [CBK282640] is higher in “% of control remaining” value: 111.834% for the first, 138.412% for the second.

Compared with CCOC(=O)c1c(NC(=O)CSc2nnc[nH]2)sc2c1CCCC2 [CBK265999], O=C(CC1CCN(C(=O)Cc2ccccc2)CC1)Nc1nc2c(s1)CCCCC2 [CBK286001] is lower in “% of control remaining” value: 182.542% for the first, 116.228% for the second.

Compared with O=C(CN1C(=O)N2CCCN=C2c2ccccc21)NC1CCCCC1 [CBK284396], O=C(O)C[C@@H]1CCN(C(=O)C2CCCCC2)C[C@@H]1CC1=NCCc2ccccc21 [CBK289158] is higher in “% of control remaining” value: 101.023% for the first, 131.645% for the second.

First: CCOC(=O)c1cccc(NS(=O)(=O)c2ccc(NC(C)=O)cc2)c1 [CBK034349]
Second: Cc1cc(C)cc(NC(=O)c2ccccc2NS(=O)(=O)c2cccc(Cl)c2)c1 [CBK113887]
The “% of control remaining” value of the first is higher: 110.36% for the first, 85.0564% for the second.

Compared with Fc1ccc(C2=Nn3cnnc3SC2)c(F)c1 [CBK288078], Cc1ccc(-c2cc(C(=O)N(C)CC3(C)COC3)[nH]n2)cc1 [CBK281717] is higher in “% of control remaining” value: 102.534% for the first, 133.728% for the second.

Compared with O=C(NCCCn1ccnc1)c1cc(-c2cccc(Br)c2)nc2ccccc12 [CBK265476], C[C@H](Nc1nc(-c2cccc(-c3ccccc3)c2)cnc1N)c1ccccc1 [CBK063752] is higher in “% of control remaining” value: 17.2456% for the first, 131.606% for the second.

Compared with OCCN1CC2(CCN(CCc3cccc4ccccc34)CC2)c2ccccc21 [CBK137013], O=C(CN1CCC2(CC1)CN(C(=O)CO)c1ccccc12)Nc1ccc(F)c(Cl)c1 [CBK131509] is lower in “% of control remaining” value: 108.507% for the first, 89.413% for the second.

Compared with N#Cc1cccnc1N1CCC(NC(=O)c2cc(Cl)c[nH]c2=O)CC1 [CBK306586], CC1(C(=O)NC2CCN(Cc3cccc(F)c3)CC2)CCCO1 (stereo not drawn) [CBK282658] is higher in “% of control remaining” value: 120.035% for the first, 130.454% for the second.

First: Cc1ccc(S(=O)(=O)N=C2NCN(CC(=O)O)CN2)cc1 [CBK261983N]
Second: Cc1ccc(S(=O)(=O)OC[C@H]2O[C@@H](n3cc(C)c(=O)[nH]c3=O)C[C@H]2O)cc1 [CBK201165]
The “% of control remaining” value of the first is lower: 101.235% for the first, 171.068% for the second.

Compared with c1cncc(CNc2nccnc2-c2ccsc2)c1 [CBK089314], O=C(c1ccco1)N1CCN(c2cc(-c3cccnc3)ncn2)CC1 [CBK037833] is higher in “% of control remaining” value: 75.8695% for the first, 204.613% for the second.

First: N/C(CS(=O)(=O)Cc1ccc(F)cc1)=N/O [CBK010956]
Second: CC(=O)N1C[C@@H]2CCCCN(CCc3ccc(F)cc3)[C@@H]2C1 [CBK285495]
The “% of control remaining” value of the first is higher: 124.566% for the first, 79.3266% for the second.

Compared with CC1(C)COC(=O)N1C1CCN(C(=O)CNC(=O)c2cccs2)CC1 [CBK044501], CCNC(=O)N1CC2(CCN(CC(=O)c3ccsc3)CC2)c2ccccc21 [CBK144601T] is higher in “% of control remaining” value: 108.513% for the first, 109.748% for the second.

First: c1ccc(COc2ccccc2-c2cc(N3CCN(c4ccccn4)CC3)ncn2)cc1 [CBK037793]
Second: O=C(NC(c1ccc(-c2ccccc2)cc1)c1cnccn1)C1CCN(C/C=C/c2ccccc2)CC1 (stereo not drawn) [CBK147984]
The “% of control remaining” value of the first is higher: 157.944% for the first, 116.696% for the second.

First: O=S(=O)(Nc1cc(OC2CCNCC2)c2occc2c1)c1c(Cl)cccc1Cl [CBK074989C]
Second: O=C(c1cccc(-c2cc3ccccc3oc2=O)c1)N1CCN(c2ccc([N+](=O)[O-])cc2Cl)CC1 [CBK269704]
The “% of control remaining” value of the first is lower: 62.2964% for the first, 101.246% for the second.

First: CC1CCN(Cc2ccc(-c3ccc(CC(=O)NCCc4ccc(O)cc4)cn3)cc2)CC1 [CBK158384]
Second: CCNC(=O)c1ccc(-c2ccc(C(=O)N(C)C)cc2)nc1 [CBK158361]
The “% of control remaining” value of the first is lower: 87.5896% for the first, 114.72% for the second.

Going from Cc1cccc2c3c([nH]c12)C1(CCN(CCCC#N)CC1)NCC3 [CBK039818] to Cc1ccc(C2(O)CCN(Cc3c(C)nc4sccn34)CC2)cc1 [CBK282734], the “% of control remaining” value falls from 167.385% to 116.857%.

Compared with CC(C)(C)NC(=O)Cn1cncc1-c1ccc2c(c1)CC(C)(C)O2 [CBK281980], CSc1ncc(CNC(=O)CC2CCc3ccccc32)n1C (stereo not drawn) [CBK307450] is higher in “% of control remaining” value: 101.61% for the first, 109.805% for the second.

First: O=C(O)c1ccccc1CSc1ccccn1 [CBK270213]
Second: CC(=O)Nc1ccccc1-c1nc2ccccc2o1 [CBK287568]
The “% of control remaining” value of the first is lower: 122.766% for the first, 163.739% for the second.

Going from Fc1ccc(-c2cccc(Nc3ccc(Oc4ccccc4)cc3)n2)cc1Cl [CBK037699] to CC(=O)Nc1ccc(-c2cncc(Nc3ccc(C#N)cc3)n2)cc1 [CBK066009], the “% of control remaining” value rises from 155.181% to 190.168%.

Going from COc1cccc2sc(NC(=O)c3ccc4ncsc4c3)nc12 [CBK287365] to Cc1ccc(NC(=O)COc2ccccc2/C=C/C(=O)O)cc1C [CBK287026], the “% of control remaining” value falls from 134.39% to 110.87%.

Compared with COc1ccc(C)cc1N1CCCN(c2cc(C)ccc2OC)C1=O [CBK006937], COc1cc(CN2CCC3(CC2)CN(S(C)(=O)=O)c2ccccc23)cc(OC)c1OC [CBK126669] is lower in “% of control remaining” value: 136.659% for the first, 133.302% for the second.

Going from COc1ccc(Cl)cc1NC(=O)CCN1CCN(C)CC1 [CBK278177C] to CN(CCN1CCCCC1)C(=O)c1cc2ccc(N(C)C)cc2[nH]1 [CBK281830], the “% of control remaining” value rises from 100% to 141.893%.

First: S=C1C=C(c2ccccc2)Nc2ccccc2N1 [CBK288438]
Second: CCCCn1c(SCCC(=O)Nc2ccccc2C(=O)c2ccccc2)n[nH]c1=O [CBK296693]
The “% of control remaining” value of the first is lower: 86.4165% for the first, 129.437% for the second.

First: COc1ccc(C(=O)N2CCC3(CCCN(C(=O)c4cscn4)C3)C2)cc1OC (stereo not drawn) [CBK131659]
Second: O=C(c1ccc2[nH]c(=O)[nH]c2c1)N1CCC2(CCN(C(=O)c3cc(F)c(F)cc3F)C2)C1 (stereo not drawn) [CBK131407]
The “% of control remaining” value of the first is higher: 108.223% for the first, 95.0915% for the second.

First: CC(C)(C)c1cc(C(c2ccccc2O)N2CCOCC2)cc(C(C)(C)C)c1O (stereo not drawn) [CBK262998]
Second: O=S1(=O)N=C(N2CCN(Cc3ccc4c(c3)OCO4)CC2)c2ccccc21 [CBK266064]
The “% of control remaining” value of the first is lower: 51.2941% for the first, 114.429% for the second.

First: Cc1ccnc(Nc2nc3ccccc3o2)n1 [CBK022772]
Second: c1csc(CN2CCC(c3cc4nccnc4[nH]3)CC2)c1 [CBK281520]
The “% of control remaining” value of the first is lower: 100% for the first, 143.684% for the second.

Going from Cc1ccc(C)c2c1CCCC2N1CCC(NS(C)(=O)=O)CC1 (stereo not drawn) [CBK304038] to Cc1nc(C)n(CC(=O)N[C@H]2C3CCCCC3[C@@H]2c2ccccc2)n1 (stereo partly drawn) [CBK285128], the “% of control remaining” value rises from 100% to 136.513%.

Compared with CC(C)(C)c1ccc(S(=O)(=O)N2CCNC(=O)C2)cc1 [CBK051238], O=C(O)C1CC=CCC1C(=O)NCc1ccc(N2CCCC2=O)cc1 (stereo not drawn) [CBK270081] is higher in “% of control remaining” value: 110.752% for the first, 144.27% for the second.

Compared with CC(C)(C)C(=O)N[C@H]1CO[C@H]2[C@@H]1OC[C@@H]2Nc1nccc(C2CCCC2)n1 [CBK289530], Cc1nc2cc(C(=O)N3CCc4[nH]c5ccccc5c4C3)ccc2n1C [CBK281842] is higher in “% of control remaining” value: 105.825% for the first, 110.424% for the second.

Going from CCOC(=O)C(C)n1nc(CC)n2c(cc3ccsc32)c1=O (stereo not drawn) [CBK284127] to Cc1nnnn1-c1ccc(CC(=O)N2CCc3sccc3C2c2ccco2)cc1 (stereo not drawn) [CBK285705], the “% of control remaining” value falls from 122.137% to 114.126%.
